Measurements from publication PMC6957492, “Assembly and substrate recognition of curli biogenesis system” (Nature Communications, 2020).
No constants are given. Whether binding was seen depends on the method and setting. Binding seen in cells or lysates may run through a third protein. A result given as binding can be weak or reduced; the word gives no strength.

Chains of the proteins cited; added tags and fusions are not shown. Lines headed by an entry give the natural chain unless they say otherwise; changes in a name come on top.
UniProt P28307: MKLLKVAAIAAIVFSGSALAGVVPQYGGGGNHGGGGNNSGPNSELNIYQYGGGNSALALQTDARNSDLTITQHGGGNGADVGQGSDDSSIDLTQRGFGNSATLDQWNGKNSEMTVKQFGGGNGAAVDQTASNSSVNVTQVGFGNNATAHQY

Target: CsgA_(R1-5) (E. coli) (UniProt P28307)
Test: pull-down; pulldown assay of CsgE and CsgA_(R1-5) (Supplementary Fig. 11a); format not told

binding: binds
B1: CsgE (expressed alone) (protein, UniProt P0AE95 23-129)
chain: VEVEVPGLLTDHTVSSIGHDFYRAFSDKWESDYTGNLTINERPSARWGSWITITVNQDVIFQTFLFPLKRDFEKTVVFALIQTEEALNRRQINQALLSTGDLAHDEF
